Our source for the AC50 values is PubChem BioAssay AID662 (National Center for Advancing Translational Sciences (NCATS), 2007).

A word on the AC50: it is the concentration giving half of the maximal activity seen.

This is one part of the list. The main result of the screen is listed elsewhere. These columns were measured beside it and carry no call. Most of these compounds were active or inconclusive in the main read-out, so they are no random draw. Words in brackets tell the shape of the fitted curve; partial curves, single points and poor fits give uncertain potencies.

This experiment in a line: Cell signaling CRE-BLA (Fsk stim). The note with it: CHO CRE-bla reporter (cAMP response element driving beta-lactamase), forskolin EC10, beta-lactamase ratio; measured here: 460 nm blue channel. An outline of the steps: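 qHTS titration format; CRE-bla CHO reporter; stimulus EC10 NKH 477, a water-soluble forskolin. Read: CCF4 460/530 nm ratio. Potency expressed as AC50 for activators or inhibitors.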
On to `Cc1cc(OCc2nc(-c3cccnc3)no2)c(C)cc1Br`, for which the concentration at half-maximal activity (AC50) is 0.0316 µM [rising, full curve, poor fit].
To `N#C[C@H]1CN[C@H](N)N[C@@H]1N` belongs 0.0631 µM [rising, full curve, poor fit].
With `CCc1c(C)sc(NC(=O)c2ccc(Br)o2)c1C(=O)OC`, the AC50 is 10 µM [rising, partial curve].
To `Cc1ccnc(Sc2nc3c(c(=O)[nH]c(=O)n3C)n2CCCc2ccccc2)n1` belongs 10 µM [rising, single point]; to `CCNc1ncc2nc(-c3ccc(Cl)cc3)c(=O)n(C3CC3)c2n1`, 3.98 µM [rising, partial curve]; to `COc1ccc(C(c2sc3ncnn3c2O)N2CCN(c3ccccc3F)CC2)cc1OC` (centres undefined), 7.94 µM [rising, partial curve].
Then `COc1cc(-c2nc(S(=O)(=O)c3ccc(C)cc3)c(N3CCOCC3)o2)cc(OC)c1OC`, with 1.26 µM [rising, full curve]; and `O=C(Nc1cccc(-c2nc3cc(Cl)ccc3o2)c1)C1CCCO1` (centres undefined), with 10 µM [rising, partial curve]; and `C/C(N)=C(/C#N)C(=O)CSc1nnc(Nc2cccc(C)c2C)s1`, with 3.98 µM [rising, single point].
Then `COc1ccc(-c2nc3cnc(N4CCOCC4)nc3n(CCc3ccccc3)c2=O)cc1`, with 3.16 µM [rising, partial curve]; and `Cc1c(-c2ccc(Cl)cc2)noc1C1CCN(CCc2ccccc2)CC1`, with 25.1 µM [falling, single point]; and `O=c1c(-c2ccc(F)cc2)nc2cnc(Nc3ccccc3)nc2n1C[C@H]1CCCO1`, with 0.2 µM [rising, full curve].
With `Cc1nc2cnc(Oc3cccc(Cl)c3)nc2n(Cc2ccc(F)cc2)c1=O`, the concentration at half-maximal activity (AC50) was 5.01 µM [rising, partial curve].
To `CCNc1nc(Oc2ccc(=O)n(C)n2)nc(N2CCOCC2)n1` belongs 20 µM [rising, single point]; to `COc1ccccc1NC(=O)c1oc2ccccc2c1NC(=O)c1ccco1`, 10 µM [rising, single point]; to `C=C(C)Cn1c(N2CCCC2)nc2c1c(=O)[nH]c(=O)n2C`, 10 µM [rising, partial curve].
Then `O=[n+]1c2c(n([O-])c3cc(Br)ccc31)CCC2`, with 25.1 µM [falling, single point].
Then `CCCc1ccc(C(=O)CCC(=O)O)cc1`, with 0.00398 µM [falling, full curve, poor fit]; and `COc1ccc(CNC(=O)c2noc3c2CCCCC3)cc1`, with 5.01 µM [rising, single point].
On to `O=C(NCc1ccco1)c1ccccc1Nc1ccc(F)cc1`, for which the half-maximal activity concentration (AC50) was 3.98 µM [falling, partial curve].
To `Cc1nc(SCC(=O)N(C)Cc2ccco2)c2c(C)c(C)sc2n1` belongs 10 µM [rising, partial curve].
Then `O=C(Nc1ccncc1)c1cc2ccccc2oc1=O`, with 0.0794 µM [rising, partial curve]; and `CC(NS(=O)(=O)c1ccc(Cl)cc1)C(c1cccs1)N1CCN(C)CC1` (centres undefined), with 25.1 µM [falling, single point]; and `CC1(C)O[C@H]2C[C@@H]3[C@H]4CCC5=CC(=O)CC[C@@]5(C)[C@]4(F)[C@@H](O)C[C@@]3(C)[C@@]2(C(=O)CCl)O1`, with 12.6 µM [falling, single point].
For the compound `Cc1cccn2c(=O)c(C=Nc3ccccc3)c(NCc3ccco3)nc12`, the AC50 was 10 µM [rising, partial curve].
For `COc1ccc(C2C(=O)N(C3CCCCC3)CC(=O)N2Cc2ccco2)cc1` (centres undefined), the AC50 was 2.51 µM [falling, single point].
To `CN(C)c1ncc2nc(-c3ccc(Cl)cc3)c(=O)n(C[C@H]3CCCO3)c2n1` belongs 3.98 µM [rising, partial curve]; to `CC(=O)O[C@H]1C(=O)[C@@]2(C)[C@H]([C@H](OC(=O)c3ccccc3)[C@]3(O)C[C@H](OC(=O)[C@H](O)[C@@H](NC(=O)c4ccccc4)c4ccccc4)C(C)=C1C3(C)C)[C@]1(OC(C)=O)CO[C@@H]1C[C@@H]2O`, 0.0794 µM [rising, full curve, poor fit]; to `COc1ccc2[nH]cc(CCNc3cc(-c4cccc(C#N)c4)ncn3)c2c1`, 10 µM [rising, partial curve, poor fit].
To `CCOC(=O)c1c(-c2cccs2)csc1NC(=O)CN1CCOCC1` belongs 10 µM [rising, partial curve]; to `COc1ccc(N(C)S(=O)(=O)c2cccc(C(=O)Nc3ccc(-n4cnnn4)cc3)c2)cc1`, 25.1 µM [falling, single point]; to `CCCn1c(N)c(C(=O)COC(=O)c2c(C)noc2C)c(=O)n(C)c1=O`, 5.01 µM [falling, single point].
To `COC(=O)c1ccc(C2CC(=O)Nc3cc(OC)c(OC)cc32)cc1` (centres undefined) belongs 12.6 µM [rising, partial curve, poor fit]; to `O=C1CC(Sc2nnc(-c3ccccc3O)o2)C(=O)N1c1ccccc1` (centres undefined), 25.1 µM [falling, single point].
Turning to `Cc1cc(C)cc(-n2cc3c(=O)n(C)c(=O)n(C)c3c2)c1`, the half-maximal activity concentration (AC50) is 15.8 µM [rising, partial curve].
To `Nc1nc(CN2CCN(c3ccccc3F)CC2)nc(Nc2ccccc2)n1` belongs 10 µM [falling, partial curve].
Then `COc1ccc2nc3c(cc2c1)c(NC(=O)C1CCCO1)nn3CC(C)C` (centres undefined), with 10 µM [rising, partial curve]; and `COc1nc(-c2ccccc2)cc(-c2ccc(OC)c(OC)c2)n1`, with 0.158 µM [rising, partial curve]; and `CC[C@H](C)[C@@H]1O[C@]2(CC[C@@H]1C)C[C@H]1C[C@H](CC=C(C)[C@@H](O[C@H]3C[C@H](OC)[C@H](O[C@H]4C[C@H](OC)[C@H](O)[C@H](C)O4)[C@H](C)O3)[C@@H](C)C=CC=C3CO[C@@H]4[C@@H](O)C(C)=C[C@H](C(=O)O1)[C@@]34O)O2`, with 15.8 µM [falling, partial curve].
Take `CC(=O)c1c(C(C)=O)c(C)n(CCCCn2c(C)c(C(C)=O)c(C(C)=O)c2C)c1C`: the half-maximal activity concentration (AC50) was 0.00631 µM [falling, full curve, poor fit].
To `Cc1nn(-c2nc3ccccc3s2)c(N)c1-c1ccc(Cl)cc1` belongs 0.0398 µM [rising, full curve, poor fit]; to `O=S(=O)(NC1CCCCC1)c1ccc(S(=O)(=O)N2CCN3CCCC3C2)cc1` (centres undefined), 3.98 µM [falling, single point].
As for `CC1CCCC(C)N1C(=O)COC(=O)c1ccc[nH]c1=O` (centres undefined), the AC50 was 3.98 µM [falling, partial curve].
To `Cn1nc(CC(=O)Nc2ccc(N3CCN(C(=O)OC(C)(C)C)CC3)cc2)c2ccccc2c1=O` belongs 25.1 µM [falling, single point].
`Cc1cnc(CNc2ccnc(-c3cccc(C#N)c3)n2)cn1`: the concentration at half-maximal activity (AC50) is 10 µM [rising, partial curve].
To `CC(=O)C1=C(O)C(=O)N(CCN2CCOCC2)C1c1ccccc1` (centres undefined) belongs 0.1 µM [falling, full curve, poor fit].
Then `Cc1ccc2c(c1)c1cccc3c1n2CCN3CCC(N)=O`, with 12.6 µM [rising, partial curve]; and `CCN(CC)CCNC(=O)CCn1c(=S)[nH]c2cc3c(cc2c1=O)OCO3`, with 5.01 µM [falling, single point].
Regarding `Cc1cc(C)c2c(N)c(C(=O)NCc3ccco3)sc2n1`, the concentration at half-maximal activity (AC50) is 3.16 µM [falling, full curve].
Then `Cc1cc(C(=O)N2CCc3ccccc32)c2cc(F)ccc2n1`, with 0.2 µM [rising, full curve].
Regarding `CCN(CC)c1nc2cc(OC)ccc2cc1C#N`, the concentration at half-maximal activity (AC50) is 12.6 µM [rising, partial curve].
For `Cc1c(C(=O)NCc2cccnc2)sc2nc(-c3ccc(F)cc3)cn12`, the AC50 is 3.98 µM [rising, full curve].
To `Cc1noc(/C=C/c2ccco2)c1S(=O)(=O)N1CCC(C(=O)N(C)Cc2ccccc2)CC1` belongs 3.16 µM [rising, single point].
As to `CCOC(=O)C(C)Sc1nc2ccccc2c(=O)n1CC` (centres undefined), the concentration at half-maximal activity (AC50) is 20 µM [rising, single point].
Turning to `COc1ccc(-n2c(Cc3cccn3C)nnc2SCC(=O)Nc2ccc(C)cc2)cc1`, the concentration at half-maximal activity (AC50) was 15.8 µM [falling, partial curve].
Then `COC(=O)COc1nsnc1N1CCOCC1`, with 25.1 µM [rising, single point]; and `O=C(Nc1sc2c(c1C(=O)NCc1cccnc1)CCCC2)c1ccco1`, with 0.631 µM [rising, partial curve]; and `COc1ccc(OC)c(NS(=O)(=O)c2ccc(NC(=O)C3COc4ccccc4O3)cc2)c1` (centres undefined), with 5.01 µM [falling, partial curve, poor fit].
Then `COc1cccc(Cn2c(=O)c(-c3ccccc3)nc3cncnc32)c1`, with 15.8 µM [rising, partial curve]; and `O=C(O)CCC(=O)NC1CCCCC1NC(=O)CCC(=O)O` (centres undefined), with 0.316 µM [falling, full curve]; and `Oc1[nH]c2ccccc2c1C1=NCCCC1`, with 25.1 µM [rising, single point].
To `Cc1cnc(CNc2nc(-c3ccc(N(C)C)cc3)nc3ccccc23)cn1` belongs 12.6 µM [rising, partial curve]; to `COc1cccc2[nH]c3c(N4CCCC(C)C4)ncnc3c12` (centres undefined), 20 µM [rising, single point]; to `O=C(OCn1nnc2ccccc2c1=O)c1cccs1`, 0.00316 µM [falling, full curve, poor fit].
